Measurements reported in article PMC12309053.
No constants are given. Whether binding was seen depends on the method and setting. In cells and extracts the contact can be indirect. A yes stands for co-enrichment or nearness to the bait. Other partners may have been found. Sequences can lack the tags named with a protein.

T1: SRSF7-GFP fusion product (Serine/arginine-rich splicing factor 7, GFP-tagged at the C-terminus, from a BAC) (human) (UniProt Q16629)
T1 sequence: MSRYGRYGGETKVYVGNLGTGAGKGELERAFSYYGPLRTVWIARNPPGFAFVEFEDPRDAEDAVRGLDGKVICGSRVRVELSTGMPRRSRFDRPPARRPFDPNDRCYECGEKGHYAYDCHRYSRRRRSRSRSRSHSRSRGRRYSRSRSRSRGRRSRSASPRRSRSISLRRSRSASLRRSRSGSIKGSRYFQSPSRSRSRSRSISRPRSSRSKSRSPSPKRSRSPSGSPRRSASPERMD

B1: phosphorylated SRSF8 (protein, UniProt Q9BRL6 1-282)
chain: MSCGRPPPDVDGMITLKVDNLTYRTSPDSLRRVFEKYGRVGDVYIPREPHTKAPRGFAFVRFHDRRDAQDAEAAMDGAELDGRELRVQVARYGRRDLPRSRQGEPRGRSRGGGYGRRSRSYGRRSRSPRRRHRSRSRGPSCSRSRSRSRYRGSRYSRSPYSRSPYSRSRYSRSPYSRSRYRESRYGGSHYSSSGYSNSRYSRYHSSRSHSKSGSSTSSRSASTSKSSSARRSKSSSVSRSRSRSRSSSMTRSPPRVSKRKSKSRSRSKRPPKSPEEEGQMSS
modifications: phosphorylated
B2: SYF2 (protein, UniProt O95926 1-243)
chain: MAAIAASEVLVDSAEEGSLAAAAELAAQKREQRLRKFRELHLMRNEARKLNHQEVVEEDKRLKLPANWEAKKARLEWELKEEEKKKECAARGEDYEKVKLLEISAEDAERWERKKKRKNPDLGFSDYAAAQLRQYHRLTKQIKPDMETYERLREKHGEEFFPTSNSLLHGTHVPSTEEIDRMVIDLEKQIEKRDKYSRRRPYNDDADIDYINERNAKFNKKAERFYGKYTAEIKQNLERGTAV
B3: NCOA5 (protein, UniProt Q9HCD5 1-579)
chain: MNTAPSRPSPTRRDPYGFGDSRDSRRDRSPIRGSPRREPRDGRNGRDARDSRDIRDPRDLRDHRHSRDLRDHRDSRSVRDVRDVRDLRDFRDLRDSRDFRDQRDPMYDRYRDMRDSRDPMYRREGSYDRYLRMDDYCRRKDDSYFDRYRDSFDGRGPPGPESQSRAKERLKREERRREELYRQYFEEIQRRFDAERPVDCSVIVVNKQTKDYAESVGRKVRDLGMVVDLIFLNTEVSLSQALEDVSRGGSPFAIVITQQHQIHRSCTVNIMFGTPQEHRNMPQADAMVLVARNYERYKNECREKEREEIARQAAKMADEAILQERERGGPEEGVRGGHPPAIQSLINLLADNRYLTAEETDKIINYLRERKERLMRSSTDSLPGPISRQPLGATSGASLKTQPSSQPLQSGQVLPSATPTPSAPPTSQQELQAKILSLFNSGTVTANSSSASPSVAAGNTPNQNFSTAANSQPQQRSQASGNQPPSILGQGGSAQNMGPRPGAPSQGLFGQPSSRLAPASNMTSQRPVSSTGINFDNPSVQKALDTLIQSGPALSHLVSQTTAQMGQPQAPMGSYQRHY
modifications: phosphorylated
B4: BUD31 (protein, UniProt P41223 1-144)
chain: MPKVKRSRKAPPDGWELIEPTLDELDQKMREAETEPHEGKRKVESLWPIFRIHHQKTRYIFDLFYKRKAISRELYEYCIKEGYADKNLIAKWKKQGYENLCCLRCIQTRDTNFGTNCICRVPKSKLEVGRIIECTHCGCRGCSG
B5: phosphorylated SRSF6 (protein, UniProt Q13247 1-344)
chain: MPRVYIGRLSYNVREKDIQRFFSGYGRLLEVDLKNGYGFVEFEDSRDADDAVYELNGKELCGERVIVEHARGPRRDRDGYSYGSRSGGGGYSSRRTSGRDKYGPPVRTEYRLIVENLSSRCSWQDLKDFMRQAGEVTYADAHKERTNEGVIEFRSYSDMKRALDKLDGTEINGRNIRLIEDKPRTSHRRSYSGSRSRSRSRRRSRSRSRRSSRSRSRSISKSRSRSRSRSKGRSRSRSKGRKSRSKSKSKPKSDRGSHSHSRSRSKDEYEKSRSRSRSRSPKENGKGDIKSKSRSRSQSRSNSPLPVPPSKARSVSPPPKRATSRSRSRSRSKSRSRSRSSSRD
modifications: phosphorylated
B6: AQR (protein, UniProt O60306 1-1485)
chain: MAAPAQPKKIVAPTVSQINAEFVTQLACKYWAPHIKKKSPFDIKVIEDIYEKEIVKSRFAIRKIMLLEFSQYLENYLWMNYSPEVSSKAYLMSICCMVNEKFRENVPAWEIFKKKPDHFPFFFKHILKAALAETDGEFSLHEQTVLLLFLDHCFNSLEVDLIRSQVQQLISLPMWMGLQLARLELELKKTPKLRKFWNLIKKNDEKMDPEAREQAYQERRFLSQLIQKFISVLKSVPLSEPVTMDKVHYCERFIELMIDLEALLPTRRWFNTILDDSHLLVHCYLSNLVRREEDGHLFSQLLDMLKFYTGFEINDQTGNALTENEMTTIHYDRITSLQRAAFAHFPELYDFALSNVAEVDTRESLVKFFGPLSSNTLHQVASYLCLLPTLPKNEDTTFDKEFLLELLVSRHERRISQIQQLNQMPLYPTEKIIWDENIVPTEYYSGEGCLALPKLNLQFLTLHDYLLRNFNLFRLESTYEIRQDIEDSVSRMKPWQSEYGGVVFGGWARMAQPIVAFTVVEVAKPNIGENWPTRVRADVTINLNVRDHIKDEWEGLRKHDVCFLITVRPTKPYGTKFDRRRPFIEQVGLVYVRGCEIQGMLDDKGRVIEDGPEPRPNLRGESRTFRVFLDPNQYQQDMTNTIQNGAEDVYETFNIIMRRKPKENNFKAVLETIRNLMNTDCVVPDWLHDIILGYGDPSSAHYSKMPNQIATLDFNDTFLSIEHLKASFPGHNVKVTVEDPALQIPPFRITFPVRSGKGKKRKDADVEDEDTEEAKTLIVEPHVIPNRGPYPYNQPKRNTIQFTHTQIEAIRAGMQPGLTMVVGPPGTGKTDVAVQIISNIYHNFPEQRTLIVTHSNQALNQLFEKIMALDIDERHLLRLGHGEEELETEKDFSRYGRVNYVLARRIELLEEVKRLQKSLGVPGDASYTCETAGYFFLYQVMSRWEEYISKVKNKGSTLPDVTEVSTFFPFHEYFANAPQPIFKGRSYEEDMEIAEGCFRHIKKIFTQLEEFRASELLRSGLDRSKYLLVKEAKIIAMTCTHAALKRHDLVKLGFKYDNILMEEAAQILEIETFIPLLLQNPQDGFSRLKRWIMIGDHHQLPPVIKNMAFQKYSNMEQSLFTRFVRVGVPTVDLDAQGRARASLCNLYNWRYKNLGNLPHVQLLPEFSTANAGLLYDFQLINVEDFQGVGESEPNPYFYQNLGEAEYVVALFMYMCLLGYPADKISILTTYNGQKHLIRDIINRRCGNNPLIGRPNKVTTVDRFQGQQNDYILLSLVRTRAVGHLRDVRRLVVAMSRARLGLYIFARVSLFQNCFELTPAFSQLTARPLHLHIIPTEPFPTTRKNGERPSHEVQIIKNMPQMANFVYNMYMHLIQTTHHYHQTLLQLPPAMVEEGEEVQNQETELETEEEAMTVQADIIPSPTDTSCRQETPAFQTDTTPSETGATSTPEAIPALSETTPTVVGAVSAPAEANTPQDATSAPEETK
B7: NUP160 (protein, UniProt Q12769 1-1436)
chain: MLHLSAAPPAPPPEVTATARPCLCSVGRRGDGGKMAAAGALERSFVELSGAERERPRHFREFTVCSIGTANAVAGAVKYSESAGGFYYVESGKLFSVTRNRFIHWKTSGDTLELMEESLDINLLNNAIRLKFQNCSVLPGGVYVSETQNRVIILMLTNQTVHRLLLPHPSRMYRSELVVDSQMQSIFTDIGKVDFTDPCNYQLIPAVPGISPNSTASTAWLSSDGEALFALPCASGGIFVLKLPPYDIPGMVSVVELKQSSVMQRLLTGWMPTAIRGDQSPSDRPLSLAVHCVEHDAFIFALCQDHKLRMWSYKEQMCLMVADMLEYVPVKKDLRLTAGTGHKLRLAYSPTMGLYLGIYMHAPKRGQFCIFQLVSTESNRYSLDHISSLFTSQETLIDFALTSTDIWALWHDAENQTVVKYINFEHNVAGQWNPVFMQPLPEEEIVIRDDQDPREMYLQSLFTPGQFTNEALCKALQIFCRGTERNLDLSWSELKKEVTLAVENELQGSVTEYEFSQEEFRNLQQEFWCKFYACCLQYQEALSHPLALHLNPHTNMVCLLKKGYLSFLIPSSLVDHLYLLPYENLLTEDETTISDDVDIARDVICLIKCLRLIEESVTVDMSVIMEMSCYNLQSPEKAAEQILEDMITIDVENVMEDICSKLQEIRNPIHAIGLLIREMDYETEVEMEKGFNPAQPLNIRMNLTQLYGSNTAGYIVCRGVHKIASTRFLICRDLLILQQLLMRLGDAVIWGTGQLFQAQQDLLHRTAPLLLSYYLIKWGSECLATDVPLDTLESNLQHLSVLELTDSGALMANRFVSSPQTIVELFFQEVARKHIISHLFSQPKAPLSQTGLNWPEMITAITSYLLQLLWPSNPGCLFLECLMGNCQYVQLQDYIQLLHPWCQVNVGSCRFMLGRCYLVTGEGQKALECFCQAASEVGKEEFLDRLIRSEDGEIVSTPRLQYYDKVLRLLDVIGLPELVIQLATSAITEAGDDWKSQATLRTCIFKHHLDLGHNSQAYEALTQIPDSSRQLDCLRQLVVVLCERSQLQDLVEFPYVNLHNEVVGIIESRARAVDLMTHNYYELLYAFHIYRHNYRKAGTVMFEYGMRLGREVRTLRGLEKQGNCYLAALNCLRLIRPEYAWIVQPVSGAVYDRPGASPKRNHDGECTAAPTNRQIEILELEDLEKECSLARIRLTLAQHDPSAVAVAGSSSAEEMVTLLVQAGLFDTAISLCQTFKLPLTPVFEGLAFKCIKLQFGGEAAQAEAWAWLAANQLSSVITTKESSATDEAWRLLSTYLERYKVQNNLYHHCVINKLLSHGVPLPNWLINSYKKVDAAELLRLYLNYDLLEEAVDLVSEYVDAVLGKGHQYFGIEFPLSATAPMVWLPYSSIDQLLQALGENSANSHNIALSQKILDKLEDYQQKVDKATRDLLYRRTL
B8: TRA2A (protein, UniProt Q13595 1-282)
chain: MSDVEENNFEGRESRSQSKSPTGTPARVKSESRSGSRSPSRVSKHSESHSRSRSKSRSRSRRHSHRRYTRSRSHSHSHRRRSRSRSYTPEYRRRRSRSHSPMSNRRRHTGSRANPDPNTCLGVFGLSLYTTERDLREVFSRYGPLSGVNVVYDQRTGRSRGFAFVYFERIDDSKEAMERANGMELDGRRIRVDYSITKRAHTPTPGIYMGRPTHSGGGGGGGGGGGGGGGGRRRDSYYDRGYDRGYDRYEDYDYRYRRRSPSPYYSRYRSRSRSRSYSPRRY
modifications: phosphorylated
B9: FYTTD1 (protein, UniProt Q96QD9 1-318)
chain: MNRFGTRLVGATATSSPPPKARSNENLDKIDMSLDDIIKLNRKEGKKQNFPRLNRRLLQQSGAQQFRMRVRWGIQQNSGFGKTSLNRRGRVMPGKRRPNGVITGLAARKTTGIRKGISPMNRPPLSDKNIEQYFPVLKRKANLLRQNEGQRKPVAVLKRPSQLSRKNNIPANFTRSGNKLNHQKDTRQATFLFRRGLKVQAQLNTEQLLDDVVAKRTRQWRTSTTNGGILTVSIDNPGAVQCPVTQKPRLTRTAVPSFLTKREQSDVKKVPKGVPLQFDINSVGKQTGMTLNERFGILKEQRATLTYNKGGSRFVTVG
B10: ISY1 (protein, UniProt Q9ULR0 1-285)
chain: MARNAEKAMTALARFRQAQLEEGKVKERRPFLASECTELPKAEKWRRQIIGEISKKVAQIQNAGLGEFRIRDLNDEINKLLREKGHWEVRIKELGGPDYGKVGPKMLDHEGKEVPGNRGYKYFGAAKDLPGVRELFEKEPLPPPRKTRAELMKAIDFEYYGYLDEDDGVIVPLEQEYEKKLRAELVEKWKAEREARLARGEKEEEEEEEEEINIYAVTEEESDEEGSQEKGGDDSQQKFIAHVPVPSQQEIEEALVRRKKMELLQKYASETLQAQSEEARRLLGY

target: T1, SRSF7-GFP fusion product (Serine/arginine-rich splicing factor 7, GFP-tagged at the C-terminus, from a BAC) (human); experiment: affinity purification with mass spectrometry; GFP-Trap agarose beads on lysates of BAC-SRSF7-GFP MDA-MB-231 cells treated with 0.1% DMSO or 1 µM T-025 for 24 h; EBC buffer, benzonase, 300 mM NaCl, 2 h at 4 °C; MDA-MB-231-GFP cells as negative control; on-bead trypsin digest, label-free quantification, phospho (STY) as variable modification, four biological replicates

binding | Binder
binds | B1
binds | B2
binds | B4
binds | B5
binds | B6
binds | B7
binds | B9
binds | B10

Binder | binding
B3 | binds
B8 | binds
